According to patent JP2005168497A:
Results are given in words; binding and its absence hold for the method and conditions named. Some entries that bind do so weakly or less than the wild type.

The chains behind the UniProt entries cited, without tags or fusion partners. Residues count along the entry.
UniProt O14763, residues 56-210: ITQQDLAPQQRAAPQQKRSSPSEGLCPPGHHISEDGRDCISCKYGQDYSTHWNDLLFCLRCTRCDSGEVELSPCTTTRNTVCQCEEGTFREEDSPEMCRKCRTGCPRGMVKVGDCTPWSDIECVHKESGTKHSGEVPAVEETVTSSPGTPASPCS

Target: TRAIL-R2-hFc (ヒトTRAIL-R2の細胞外領域とヒトIgG1のFc領域とが融合したタンパク質, ALEXIS社製) (human) (UniProt O14763)
Assay: ELISA, purified antibody on plate-coated TRAIL-R2-hFc (Example 4)

B1: KMTR1抗体 (ハイブリドーマKMTR1, FERM BP-8038 の産生するヒトモノクローナル抗体) (antibody, V domains shown)
VH: EVQLLESGGGLVQPGRSLRLSCAASGFTFSSYAMSWVRQAPGKGLEWVSAISGSGGSRYYADSVKGRFTISRDNSKNTLYLQMNSLRAEDTAVYYCAKESSGWFGAFDYWGQGTLVTVSS
VL: EIVLTQSPDFQSVTPKEKVTITCRASQSIGSSLHWYQQKPDQSPKLLIKYASQSFSGVPSRFSGSGSGTDFTLTINSLEAEDAAAYYCHQSSSLPITFGQGTRLEIK
For B1, the binding was “binds”.
